Our source for the binding values is article PMC4678859.

Sequences of proteins named here, by UniProt entry; tags and fusion partners are left off.
UniProt Q9UKV8: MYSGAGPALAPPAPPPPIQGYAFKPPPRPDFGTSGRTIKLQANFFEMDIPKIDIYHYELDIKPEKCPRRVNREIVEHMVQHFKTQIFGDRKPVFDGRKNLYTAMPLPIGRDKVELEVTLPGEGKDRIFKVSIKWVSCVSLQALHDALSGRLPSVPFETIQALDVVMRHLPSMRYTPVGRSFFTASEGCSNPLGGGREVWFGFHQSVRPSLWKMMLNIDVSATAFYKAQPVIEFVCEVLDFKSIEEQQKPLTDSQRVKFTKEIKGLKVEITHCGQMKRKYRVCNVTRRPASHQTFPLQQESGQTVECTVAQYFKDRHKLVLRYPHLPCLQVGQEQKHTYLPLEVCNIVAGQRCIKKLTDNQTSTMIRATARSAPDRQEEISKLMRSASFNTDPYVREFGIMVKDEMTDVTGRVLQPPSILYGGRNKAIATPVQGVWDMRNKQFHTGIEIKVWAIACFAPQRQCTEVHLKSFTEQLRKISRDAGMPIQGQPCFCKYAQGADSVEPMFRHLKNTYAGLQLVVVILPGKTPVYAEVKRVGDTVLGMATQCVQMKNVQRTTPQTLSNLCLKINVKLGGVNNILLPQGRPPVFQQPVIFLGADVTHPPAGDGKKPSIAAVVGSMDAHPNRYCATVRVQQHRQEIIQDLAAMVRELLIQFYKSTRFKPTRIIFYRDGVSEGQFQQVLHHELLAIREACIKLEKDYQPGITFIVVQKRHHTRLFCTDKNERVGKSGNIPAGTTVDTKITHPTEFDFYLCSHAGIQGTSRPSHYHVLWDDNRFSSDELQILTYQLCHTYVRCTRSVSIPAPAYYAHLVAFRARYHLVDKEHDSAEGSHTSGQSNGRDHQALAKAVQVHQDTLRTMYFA

Results are given in words; binding and its absence hold for the method and conditions named. For some of these results: In cells and extracts the contact can be indirect. Some entries that bind do so weakly or less than the wild type. For some of these results: Sequences can lack the tags named with a protein.

Experiment [1] has as its target Argonaute-2 (Ago-2), endogenous in nuclear extracts of HCT116 cells (human (endogenous in HCT116)) (UniProt Q9UKV8). The experiment can be described thus: co-IP; 100 ug total protein of nuclear extracts from HCT116 cells, non-stress or after UV treatment, samples treated with RNase A; IPed with anti-PARN or anti-Ago-2; pellets and supernatants immunoblotted for PARN and Ago-2. Background: A western blot detects proteins with antibodies after separation by electrophoresis.

Experiment [2] has as its target GST-Ago-2 (full-length recombinant Ago-2) (UniProt Q9UKV8). The experiment can be described thus: pull-down; His-PARN immobilised on nickel beads incubated with GST-Ago-2; and GST-Ago-2 immobilised on glutathione beads incubated with His-PARN, His-NTD-PARN or His-CTD-PARN; no miRNA added; bound proteins detected by immunoblotting; both purified.

B1: Poly(A) specific ribonuclease (PARN), endogenous in nuclear extracts of HCT116 cells (enzyme, UniProt O95453 1-639)
chain: MEIIRSNFKSNLHKVYQAIEEADFFAIDGEFSGISDGPSVSALTNGFDTPEERYQKLKKHSMDFLLFQFGLCTFKYDYTDSKYITKSFNFYVFPKPFNRSSPDVKFVCQSSSIDFLASQGFDFNKVFRNGIPYLNQEEERQLREQYDEKRSQANGAGALSYVSPNTSKCPVTIPEDQKKFIDQVVEKIEDLLQSEENKNLDLEPCTGFQRKLIYQTLSWKYPKGIHVETLETEKKERYIVISKVDEEERKRREQQKHAKEQEELNDAVGFSRVIHAIANSGKLVIGHNMLLDVMHTVHQFYCPLPADLSEFKEMTTCVFPRLLDTKLMASTQPFKDIINNTSLAELEKRLKETPFNPPKVESAEGFPSYDTASEQLHEAGYDAYITGLCFISMANYLGSFLSPPKIHVSARSKLIEPFFNKLFLMRVMDIPYLNLEGPDLQPKRDHVLHVTFPKEWKTSDLYQLFSAFGNIQISWIDDTSAFVSLSQPEQVKIAVNTSKYAESYRIQTYAEYMGRKQEEKQIKRKWTEDSWKEADSKRLNPQCIPYTLQNHYYRNNSFTAPSTVGKRNLSPSQEEAGLEDGVSGEISDTELEQTDSCAEPLSEGRKKAKKLKRMKKELSPAGSISKNSPATLFEVPDTW
Turning to B1, the binding entry in experiment [1] is reported as “binds”.

B2: His-PARN (full-length recombinant PARN) (enzyme, UniProt O95453 1-639)
chain: MEIIRSNFKSNLHKVYQAIEEADFFAIDGEFSGISDGPSVSALTNGFDTPEERYQKLKKHSMDFLLFQFGLCTFKYDYTDSKYITKSFNFYVFPKPFNRSSPDVKFVCQSSSIDFLASQGFDFNKVFRNGIPYLNQEEERQLREQYDEKRSQANGAGALSYVSPNTSKCPVTIPEDQKKFIDQVVEKIEDLLQSEENKNLDLEPCTGFQRKLIYQTLSWKYPKGIHVETLETEKKERYIVISKVDEEERKRREQQKHAKEQEELNDAVGFSRVIHAIANSGKLVIGHNMLLDVMHTVHQFYCPLPADLSEFKEMTTCVFPRLLDTKLMASTQPFKDIINNTSLAELEKRLKETPFNPPKVESAEGFPSYDTASEQLHEAGYDAYITGLCFISMANYLGSFLSPPKIHVSARSKLIEPFFNKLFLMRVMDIPYLNLEGPDLQPKRDHVLHVTFPKEWKTSDLYQLFSAFGNIQISWIDDTSAFVSLSQPEQVKIAVNTSKYAESYRIQTYAEYMGRKQEEKQIKRKWTEDSWKEADSKRLNPQCIPYTLQNHYYRNNSFTAPSTVGKRNLSPSQEEAGLEDGVSGEISDTELEQTDSCAEPLSEGRKKAKKLKRMKKELSPAGSISKNSPATLFEVPDTW
Consider B2, for which the binding result in experiment [2] is recorded as “binds”.

B3: His-NTD-PARN (N-terminal domain of PARN, aa 1-470) (domain or fragment, UniProt O95453 1-470)
chain: MEIIRSNFKSNLHKVYQAIEEADFFAIDGEFSGISDGPSVSALTNGFDTPEERYQKLKKHSMDFLLFQFGLCTFKYDYTDSKYITKSFNFYVFPKPFNRSSPDVKFVCQSSSIDFLASQGFDFNKVFRNGIPYLNQEEERQLREQYDEKRSQANGAGALSYVSPNTSKCPVTIPEDQKKFIDQVVEKIEDLLQSEENKNLDLEPCTGFQRKLIYQTLSWKYPKGIHVETLETEKKERYIVISKVDEEERKRREQQKHAKEQEELNDAVGFSRVIHAIANSGKLVIGHNMLLDVMHTVHQFYCPLPADLSEFKEMTTCVFPRLLDTKLMASTQPFKDIINNTSLAELEKRLKETPFNPPKVESAEGFPSYDTASEQLHEAGYDAYITGLCFISMANYLGSFLSPPKIHVSARSKLIEPFFNKLFLMRVMDIPYLNLEGPDLQPKRDHVLHVTFPKEWKTSDLYQLFSAFGN
With B3, the binding entry in experiment [2] is recorded as “binds”.

B4: His-CTD-PARN (C-terminal domain of PARN, aa 443-639) (domain or fragment, UniProt O95453 443-639)
chain: KRDHVLHVTFPKEWKTSDLYQLFSAFGNIQISWIDDTSAFVSLSQPEQVKIAVNTSKYAESYRIQTYAEYMGRKQEEKQIKRKWTEDSWKEADSKRLNPQCIPYTLQNHYYRNNSFTAPSTVGKRNLSPSQEEAGLEDGVSGEISDTELEQTDSCAEPLSEGRKKAKKLKRMKKELSPAGSISKNSPATLFEVPDTW
Take B4: the binding entry in experiment [2] is recorded as “no binding”.
